These are yes or no findings as the source states them, for the method shown. Binding seen in cells or lysates may run through a third protein. Binding can be weak; no strength is given.
What was measured:
GST-RIPK1 D138N (mouse) = GST-RIPK1 D138N (mouse) (UniProt Q60855); assay: pull-down; GST-pulldown on glutathione agarose (16 h, 4 °C, beads blocked with 1% BSA) from lysates of HEK293T cells co-transfected with FLAG-PRMT5 and GST-tagged bait; immunoblot; also with Nec-1 treatment of the cells
[1] = target: GST-tagged dimerization deficient mutant of mRIPK1 (∆DD, RHIMmut) (mouse) (UniProt Q60855); assay: as above

By UniProt entry, the sequences of proteins in these tests, tags left out. Where a name states a change or a piece, a line headed by the entry shows the natural chain unless it says otherwise.
UniProt Q60855: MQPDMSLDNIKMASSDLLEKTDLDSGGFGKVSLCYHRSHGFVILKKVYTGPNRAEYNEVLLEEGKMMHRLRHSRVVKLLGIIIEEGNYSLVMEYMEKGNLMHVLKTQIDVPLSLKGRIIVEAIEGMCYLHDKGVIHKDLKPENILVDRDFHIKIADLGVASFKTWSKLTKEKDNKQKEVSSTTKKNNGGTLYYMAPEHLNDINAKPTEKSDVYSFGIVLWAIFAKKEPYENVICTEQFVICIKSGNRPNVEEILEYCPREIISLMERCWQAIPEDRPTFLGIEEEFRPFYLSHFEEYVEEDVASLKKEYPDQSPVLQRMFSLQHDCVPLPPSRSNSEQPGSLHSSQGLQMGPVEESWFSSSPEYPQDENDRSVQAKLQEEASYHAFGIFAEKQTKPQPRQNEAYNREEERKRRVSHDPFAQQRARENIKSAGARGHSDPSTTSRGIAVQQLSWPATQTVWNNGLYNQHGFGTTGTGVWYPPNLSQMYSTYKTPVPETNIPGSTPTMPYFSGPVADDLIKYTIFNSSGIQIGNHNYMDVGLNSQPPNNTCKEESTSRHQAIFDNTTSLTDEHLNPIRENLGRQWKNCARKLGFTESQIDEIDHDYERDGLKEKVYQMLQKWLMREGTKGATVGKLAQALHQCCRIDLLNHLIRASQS
UniProt O14744: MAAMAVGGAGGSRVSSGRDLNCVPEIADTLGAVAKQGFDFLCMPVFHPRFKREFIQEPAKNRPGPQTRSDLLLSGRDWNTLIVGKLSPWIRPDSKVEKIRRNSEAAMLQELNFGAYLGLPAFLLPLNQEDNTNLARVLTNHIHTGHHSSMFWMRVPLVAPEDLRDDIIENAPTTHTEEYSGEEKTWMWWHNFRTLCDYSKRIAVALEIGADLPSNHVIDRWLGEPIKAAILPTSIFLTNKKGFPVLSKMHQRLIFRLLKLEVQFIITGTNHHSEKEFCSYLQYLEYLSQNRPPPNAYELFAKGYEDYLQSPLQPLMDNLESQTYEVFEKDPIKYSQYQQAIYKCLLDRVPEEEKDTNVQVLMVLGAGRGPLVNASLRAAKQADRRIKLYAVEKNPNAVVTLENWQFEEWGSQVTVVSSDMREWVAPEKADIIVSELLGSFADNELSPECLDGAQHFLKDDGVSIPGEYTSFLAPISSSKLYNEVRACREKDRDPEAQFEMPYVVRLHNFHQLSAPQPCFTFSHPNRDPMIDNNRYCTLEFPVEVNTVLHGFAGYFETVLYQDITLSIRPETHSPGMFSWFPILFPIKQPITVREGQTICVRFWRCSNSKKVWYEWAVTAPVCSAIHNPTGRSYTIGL

- binding (GST-RIPK1 D138N (mouse)): binds
- binding [1]: binds
Substance: 3xFLAG-PRMT5 (from UniProt O14744 1-637)

— PMC9852244
